Laboratory results published in patent publication US20100137221A1, “PEPTIDES THAT INTERACT WITH TOPOISOMERASE I AND METHODS THEREOF” (UNIVERSITY UTAH RESEARCH FOUNDATION, priority 2007, published 2010).

Columns and labels:
[1] = biological target: topoisomerase II; assay: SPR (BIAcore), analyte injected over T1BP2-derivatized channel
[2] = biological target: tubulin; assay: as above
[3] = biological target: tubulin; assay: SPR (BIAcore), channel derivatized with T1BP2, 8.0 nM tubulin injected
[4] = biological target: topoisomerase II; assay: SPR (BIAcore), channel derivatized with T1BP2, 8.0 nM topoisomerase II injected

Measured: binding

B1: T1BP2 (peptide)
peptide: SAYAATVRGPLSSAS
notes: Coupled to a CM5 chip for SPR; also called T1PB2; CPP3
no binding (tested: 8.0 nM): [1] | [2] | [3] | [4]

No constants are given. Whether binding was seen depends on the method and setting.
